The numbers were not newly measured in patent publication US10357460B2, “Particulate comprising a calcium-containing compound and a sugar alcohol” (Takeda Nycomed AS, priority 2004, dated 2019), which cites them from elsewhere.

A value given as a limit tells only on which side of the number the result lay.

For the series the following is noted: compared to sucrose; cited from earlier work.
`OC[C@@H](O)[C@@H](O[C@H]1O[C@H](CO)[C@@H](O)[C@H](O)[C@H]1O)[C@H](O)[C@@H](O)CO` [maltitol, Maltitol]: the sweetening effect is recorded as below 1. As to `OC[C@@H](O)[C@@H](O)[C@H](O)[C@@H](O)CO` [sorbitol, Sorbitol], the sweetening effect is 0.55. With `OC[C@@H](O)[C@H](O)[C@@H](O)CO` [xylitol, Xylitol], the sweetening effect was 1. As for Isomalt, the sweetening effect is below 0.5.
